From paper PMC8481254 come the findings set out here.

Sequences of proteins named here, by UniProt entry; tags and fusion partners are left off.
UniProt P46937: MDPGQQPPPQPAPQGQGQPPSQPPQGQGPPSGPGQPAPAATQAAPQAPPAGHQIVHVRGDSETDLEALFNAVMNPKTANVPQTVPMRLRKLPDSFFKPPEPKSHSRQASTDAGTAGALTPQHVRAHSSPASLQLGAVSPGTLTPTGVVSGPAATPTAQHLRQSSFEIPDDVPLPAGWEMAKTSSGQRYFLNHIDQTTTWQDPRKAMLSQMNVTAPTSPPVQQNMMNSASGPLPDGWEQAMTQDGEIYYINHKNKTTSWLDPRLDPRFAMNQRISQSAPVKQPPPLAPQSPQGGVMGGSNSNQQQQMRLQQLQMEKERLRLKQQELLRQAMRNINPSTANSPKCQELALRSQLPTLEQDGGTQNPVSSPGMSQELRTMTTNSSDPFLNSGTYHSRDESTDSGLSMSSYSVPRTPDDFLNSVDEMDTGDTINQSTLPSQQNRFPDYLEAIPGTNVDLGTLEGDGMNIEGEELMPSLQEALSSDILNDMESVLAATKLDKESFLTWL

No constants are given. Whether binding was seen depends on the method and setting. Binding seen in cells or lysates may run through a third protein. Some binding calls cover weakened binding; strength is not graded here. Where a sequence is shown, tags or fusion partners need not be part of it.

Assay [1] addresses T1, O-linked N-acetylglucosamine (GlcNAc) transferase (UniProt O15294).
T1 sequence: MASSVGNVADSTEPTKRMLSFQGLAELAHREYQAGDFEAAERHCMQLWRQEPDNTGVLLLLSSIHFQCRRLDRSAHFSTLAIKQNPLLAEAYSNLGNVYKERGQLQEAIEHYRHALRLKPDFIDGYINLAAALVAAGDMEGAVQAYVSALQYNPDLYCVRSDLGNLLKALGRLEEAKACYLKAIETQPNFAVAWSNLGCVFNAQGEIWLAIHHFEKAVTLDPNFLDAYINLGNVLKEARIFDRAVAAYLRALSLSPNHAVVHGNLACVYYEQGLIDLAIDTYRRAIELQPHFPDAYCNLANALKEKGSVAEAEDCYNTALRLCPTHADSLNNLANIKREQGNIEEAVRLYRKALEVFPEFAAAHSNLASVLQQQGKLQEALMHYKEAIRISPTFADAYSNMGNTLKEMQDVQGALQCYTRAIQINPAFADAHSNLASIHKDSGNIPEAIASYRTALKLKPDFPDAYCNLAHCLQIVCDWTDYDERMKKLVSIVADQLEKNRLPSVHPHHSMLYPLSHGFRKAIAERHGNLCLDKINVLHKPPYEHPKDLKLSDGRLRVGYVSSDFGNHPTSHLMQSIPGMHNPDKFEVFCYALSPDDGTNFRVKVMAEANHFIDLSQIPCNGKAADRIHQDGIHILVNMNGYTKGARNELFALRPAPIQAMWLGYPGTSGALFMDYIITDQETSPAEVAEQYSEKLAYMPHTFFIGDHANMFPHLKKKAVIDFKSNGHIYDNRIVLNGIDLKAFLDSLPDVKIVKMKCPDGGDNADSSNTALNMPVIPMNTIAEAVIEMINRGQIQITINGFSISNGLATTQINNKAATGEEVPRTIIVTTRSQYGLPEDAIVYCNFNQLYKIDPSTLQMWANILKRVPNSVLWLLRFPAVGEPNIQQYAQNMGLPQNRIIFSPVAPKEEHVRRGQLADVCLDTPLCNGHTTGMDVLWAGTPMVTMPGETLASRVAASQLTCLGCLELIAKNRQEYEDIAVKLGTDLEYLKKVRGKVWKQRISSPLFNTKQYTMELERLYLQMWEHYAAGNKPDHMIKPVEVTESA
The experiment in a line: co-IP; reciprocal co-immunoprecipitation: IP with anti-YAP antibodies, OGT detected, and vice versa; cells not told.

In assay [2] the target is Yes-associated protein (UniProt P46937). The assay is described as above.

For “Yes-associated protein (from UniProt P46937 1-504)”, the binding result in assay [1] was “binds”.

B1: O-linked N-acetylglucosamine (GlcNAc) transferase (enzyme, UniProt O15294 1-1046)
chain: T1 sequence
With B1, the binding result in assay [2] is on record as “binds”.
